{
  "source": "patent US20120190620A1",
  "about": "“METHODS TO IDENTIFY TARGETS AND MOLECULES REGULATING PURINOSOMES AND THEIR USES” (priority 2010, published 2012)",
  "tested_on": "HeLa cells",
  "test": "Purinosome dynamics DMR screen, sequential order molecule, DMAT, TBB",
  "format": "cell-based, human",
  "from_the_text": "A library of agonists for various different GPCRs were used to individually pretreat a confluent layer of Hela cells for about one hour, before sequential stimulation with DMAT and TBB, respectively. The responses were monitored using Epic® system.\nA library of molecules targeting endogenous alpha2A and beta2 adrenergic receptors were used to individually pretreat a confluent layer of Hela cells for about one hour, before sequential stimulation with DMAT and TBB, respectively. The responses were monitored using Epic® system.\nEpic® wavelength interrogation system (Corning Inc., Corning, N.Y.) was used for whole cell sensing. This system consists of a temperature-control unit, an optical detection unit, and an on-board liquid handling unit with robotics. […]\nFor biosensor cellular assays, compound solutions were made by diluting the stored concentrated solutions with the HBSS (1× Hanks balanced salt solution, plus 20 mM Hepes, pH 7.1), and transferred into a 384 well polypropylene compound storage plate to prepare a compound source plate. […] Both the cell assay plate and the compound source plate(s) were then incubated in the hotel of the reader system. After incubation the baseline wavelengths of all biosensors in the cell assay microplate were recorded and normalized to zero. […]",
  "data": [
    {"smiles": "COc1ccc(CC(C)NCC(O)c2ccc(O)c(NC=O)c2)cc1", "note": "(stereo not shown) [formoterol]", "values": [
      {"measurement": "modulation of the DMAT signal", "value": "specifically suppress"}
    ]}
  ]
}
